According to PubChem BioAssay AID1347423 (Functional Genomics Laboratory (NCATS/FGL), 2020):
Out of some 52,000 sequences screened, about 210 (0.4%) were called active.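 Rule for the calls: active = gene whose silencing raises cell survival under the drug, median off-target-corrected z-score across its silencing RNAs 2 or more; inactive = the rest.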 Some of the results follow.

Test: Resistance to Poly (ADP-Ribose) Polymerase inhibitor: Gene Identification via Genome-wide siRNA Screen
Settings: mouse BRCA2 R2336H ES cells, olaparib, CellTiter-Glo viability; hits give high values
Procedure, shortened: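 Mouse BRCA2 R2336H ES cells were reverse-transfected with siRNA (20 nM final), treated at 48 h with 500 nM olaparib, and read by CellTiter-Glo after 72 h. Scores: MAD-based z per siRNA, median per gene, seed off-target correction.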
With GGAUUAUUCAAGGACUUUGTT against Bmf the z-score was inactive: -0.000445. In the case of GGCCAAACUUAAUCAACCUTT against D3Wsu161e, the z-score was inactive: 0.582. For GCUACUCAGUCAUUGAGCCTT against Tatdn2, the z-score was inactive: -1.19. With “GGAGCUAUGAUGGCGAUUUTT against 4930403J22Rik” the z-score was inactive: -2.38. In the case of GCAACAUUGAUUCUAGGAUTT against Olfr1391, the z-score was inactive: 0.698. For GGCAGUUAACACUUAAUGATT against Foxp2, the z-score was inactive: 1.04. In the case of CAAUCCUCAACGAUUACAUTT against Ncor1, the z-score was inactive: 1.9. In the case of GGUGCAUGUCUUCAUCCACTT against Rnase12, the z-score was inactive: -0.41. With “GGCCAUUUAAUUUCAUGGCTT against 2810030E01Rik” the z-score was inactive: 1.18. In the case of GGUGUUUUGUGAAUUGAAATT against Leprotl1, the z-score was inactive: 0.828. With “GCAAGUGAAAUCCAAACAGTT against 5830411E10Rik” the z-score was inactive: -0.89. For GGUGGAUUUUUUGUUGAUCTT against Nat5, the z-score was inactive: -0.684. For GGCCGAAGCCCAGAAACAATT against Itih4, the z-score was inactive: -2.02. In the case of GGUACUUCCUCAUUUACCUTT against Zdhhc4, the z-score was inactive: -0.978. With GCCAAGUGCUACAACAUCCTT against Ifitm5 the z-score was inactive: -0.201. With GGAAUUUGCCAAUGACUUCTT against Cygb the z-score was inactive: 0.738. For CCUACUCUACAACAUGGAATT against Alox15, the z-score was inactive: -0.158. With GCACAUUUUAGCCUAAUGGTT against Tpm3 the z-score was inactive: 0.0454. With GGGAUAGCAAGACUUUCACTT against C5r1 the z-score was inactive: -0.0492. In the case of GGCCGAGAGUAUUUCUACATT against Efna5, the z-score was inactive: -1.46. In the case of “GGGUAUUCUUGCUUUAGCUTT against C330049O21Rik”, the z-score was inactive: -0.735. In the case of GGGUUUCUUCCCUGAGCUATT against Nxf7, the z-score was inactive: -2.83. With GUGUCUCUGUAGUUGUUACTT against Olfr494 the z-score was inactive: 1.55. With GCAGCGUAUGCUAAUAUAATT against Cln3 the z-score was inactive: 0.219. For GGUAAUCCUGACUUCGUGGTT against Asb17, the z-score was inactive: 1.28. For “CCAAUUGGUAUCAAGCAAUTT against 2610207I16Rik”, the z-score was inactive: 0.778. With GGCAGCUUUCCUAUUGAAUTT against Tex19 the z-score was inactive: -0.164. With GGAUGGACAACUGAAGUCATT against Dnajb10 the z-score was inactive: 0.694. With GGAGCUAACUGUCAAUGGATT against Dub1 the z-score was inactive: 0.805. With “GGAACCUAAAACACUAAACTT against 4932415D10Rik” the z-score was inactive: 0.294. In the case of GGAUUUUGAAGAUGCUUGUTT against Mak10, the z-score was inactive: -0.812. For CCCAAAAAAAUCGUACUGUTT against Rbx1, the z-score was inactive: 0.821. With “CGCGUGCAUUAAUGCCUCUTT against 1700095H12” the z-score was inactive: 1.15. With GGAAGAAUUGAACCACAGGTT against Papolg the z-score was inactive: 0.756. For GGAAUUGACCAAGACAUAUTT against Mep1b, the z-score was inactive: -0.665. For CCUAUUUUAACCUUACGUGTT against Bdh, the z-score was inactive: 0.262. For GGGUGCCAAACACCUCAGUTT against Igfbp2, the z-score was inactive: -0.907. With GCCAAUGUAACCUUCAAAATT against Lypla1 the z-score was inactive: 0.603. For GGAGCGAUGUAGUUGCUUGTT against Olig1, the z-score was inactive: 1.4. For CCGAGUUUGGCUAUAAAGGTT against Tufm, the z-score was inactive: -0.409. For GGGACCCAAACAUUGAAGCTT against Fez1, the z-score was inactive: -0.0683. In the case of “GCUACAGCACAUGGGAUUCTT against 5730411O18Rik”, the z-score was inactive: -0.284. With CCUAAGUCCAAUCACACCUTT against Olfr1076 the z-score was inactive: 0.764. With GGCGAGAAGAGGUGAAUCATT against Nrbp the z-score was inactive: -1.61. In the case of CCCAAACUGAAUUAAGCAGTT against Spata7, the z-score was inactive: 0.129. For “GCUAUGAAUCAGAAUGAAGTT against B230209C24Rik”, the z-score was inactive: -0.756. For GGAUUCUUCAUUUCUAGUGTT against C1qtnf6, the z-score was inactive: 0.239. For “GGCCAAGCUGAAGAAAAUGTT against 6330500D04Rik”, the z-score was inactive: -2.27. With GGAUGUUGCUGUCGAUACATT against Kcnq3 the z-score was inactive: 1.06. In the case of GGGCUUUUACUCCUACCUGTT against BC042513, the z-score was inactive: -0.798. With GGAUGACAGUGUGAUUGUGTT against Zfpn1a4 the z-score was inactive: -1.28. For GGAGAUGCUGGACUGCUUUTT against Htr1b, the z-score was active: -0.751. For GGCAUGUUCAUGUUCACUATT against BC004853, the z-score was inactive: 1.58. In the case of GGAGAAGGUUCACUCUGAUTT against Traf1, the z-score was inactive: -2.85. For GGCAACUUUUAACUAACUUTT against Gbp2, the z-score was inactive: -0.223. For CGACCUACCUUUAAGCUUGTT against MGC79224, the z-score was inactive: 0.723. In the case of “CCUAACUUCACUUGAUAUGTT against 5730407K14Rik”, the z-score was inactive: -0.113. With GGAGGUGAUCUGUACCGGATT against Nek4 the z-score was inactive: 1.95. With “GGAUAACCUCGUCUUCAACTT against 5031404N07” the z-score was inactive: 0.692. With GGACAUACAGUGAUGAGGCTT against D6Ertd32e the z-score was inactive: 0.699. For GCUGGAAGCAUUUGUUUUUTT against Uap1, the z-score was inactive: -0.0797. With GGCCGUUGUAUGAAGAGUATT against Ace2 the z-score was inactive: 0.374. For “GGACAGCUUUCAUGGAAAATT against 2410016O06Rik”, the z-score was inactive: 1.32. In the case of GGUUAUUAUAAUGAUCUGGTT against Wdr33, the z-score was inactive: -0.0353. With GGAUAUCAACAGAUACAUCTT against Serpina12 the z-score was inactive: 1.97. For GGAACUGCCCAUUCAUCUATT against Pramel6, the z-score was inactive: -1.5. In the case of CCUUAUAAGAAAGAUAGACTT against Nhlrc2, the z-score was inactive: 1.06. For GGAGGUUGAGGCUUCUAAGTT against Pacsin3, the z-score was inactive: 1.56. With GGAAGACCCUAAGGACUAUTT against Stk23 the z-score was inactive: -0.035. For GGCAUUUAUUUACCCUAGATT against Pcdha11, the z-score was inactive: -0.999. In the case of GCUCACAGAAACGACCCAUTT against Bicd1, the z-score was inactive: 0.356. In the case of GGAGCAGACGAUAUGCAGATT against Copb2, the z-score was inactive: -3.79. In the case of “GCUUCACAAUUCCUGAUAATT against D6Ertd245e”, the z-score was inactive: 0.91. With CCAUGGACCAAAUGAAGUUTT against Cd44 the z-score was inactive: 1.02. In the case of “GGCAACCAUACUUCAUCUATT against 8430410A17Rik”, the z-score was inactive: -0.107. With GGCGGUCAAGUGAGGUUCUTT against Hhex the z-score was inactive: -0.207. For GGGAACAUAGAGUUGAUCCTT against Map17, the z-score was inactive: -0.0915. With GGUUCCAACCGAUAAGUAUTT against Fh1 the z-score was inactive: -1.96. With “GGGACUCAUUGCUAACUCATT against C430013M08Rik” the z-score was inactive: -0.852. With “CCCAAGGUCCAGUUUGAUGTT against D14Ertd209e” the z-score was inactive: -0.389. For GGACAUCACCUGUCAAAGUTT against Zar1, the z-score was inactive: 0.317. For GCACUUCAACCCUAACAUUTT against Acp2, the z-score was inactive: 1.4. In the case of “GGGUUUUACCAUGGAAUUCTT against 2810046C01Rik”, the z-score was inactive: -1.83. In the case of GGUUGUGACUUCACGUUCCTT against Sult1a1, the z-score was inactive: 0.591. In the case of “GCACUCACACAUUAAGAGATT against 2310042N02Rik”, the z-score was inactive: -0.523. In the case of CCUACUCCUUCUUGAUUUATT against Lpl, the z-score was inactive: -0.153. In the case of “GGCCUGGAUCAUUGUGGUGTT against 2810025M15Rik”, the z-score was inactive: 0.523. With GGAUAUUCAGCACUGGGAATT against Rrm2 the z-score was inactive: -1.9. In the case of “GCUAUUUAUCACCAAGACATT against 4932443D16Rik”, the z-score was inactive: 0.0165. With “GGAAGUUCAAGAAGAUCAUTT against D1Ertd396e” the z-score was inactive: -2.92. With GGUAUCAUGCUGAGAGAGATT against B4galt6 the z-score was inactive: 1.12. With CCAAUUGCUAAUCCUUUGUTT against Pin1 the z-score was inactive: 0.609. With GCUACUGUCAAGUAUGGAATT against Dscr2 the z-score was inactive: 0.11. In the case of GGAGAUUAUGAAAGAUUUGTT against Pank3, the z-score was inactive: 1.23. In the case of GGACCAUCCCUGUUUUAUATT against Ifrd2, the z-score was inactive: 0.798. In the case of GCAAUCGAUGCAUUUAAUGTT against Pex2, the z-score was inactive: 0.669. With “GGAAUAUACGAAUCACAGATT against 4930478A21Rik” the z-score was inactive: -0.0969. In the case of GGAGUCCUCUAUGUGCAGATT against Pla2g4b, the z-score was inactive: -1.03. With GGGAUGGACUUUUGACUGATT against V1rh13 the z-score was inactive: -0.714. With GUUUGCUGCUAUCUCUUUUTT against Atp6v0e the z-score was inactive: -0.0811. With GGAGUGGAGUUCAACAUUGTT against Atox1 the z-score was inactive: 0.269. For GGCAUUUUCCACAUGCGGCTT against Olfr139, the z-score was inactive: 0.814. With GGUGCAAGAACACUAUGAUTT against U2af1l4 the z-score was inactive: 0.00628. With “GGAAGAUUUAUUUCACGGATT against 2310001A20Rik” the z-score was inactive: -0.0405.
